Record: PubChem BioAssay AID1224826 (NIAID, 2016)

- Test: 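Regulators of Tlr4 signalling leading to Tnf-alpha expression in macrophages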 (primary screen)
- Cell system: RAW264.7 G9 macrophages from mouse bearing reporters for p65 (GFP) and the Tnf promoter (mCherry)
- Knock-down reagent: siRNA pool against mouse genes, 100 nM
- Time to read-out: 16 h of LPS stimulation, after 2 days of siRNA transfection
- Conditions: bacterial lipopolysaccharide (Salmonella minnesota R595), 10 ng/ml
- Detection: 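Imaged Tnf reporter mCherry in nuclei, minus background, normalised per plate to the median and expressed as robust z-scores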
- Direction: Tnf reporter robust z-score: higher = stronger Tnf promoter reporter signal after LPS; Tnf reporter intensity: higher = stronger Tnf promoter reporter signal
- Active means: 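a well counts as active at a score of -1.3 or below (Tlr4 knock-down control median) or above 3 (raised signal); controls and wells holding fewer than 50 cells are excluded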
- Calls: active = Tnf reporter clearly lowered or raised; inactive = no clear change in Tnf reporter
The whole screen tested about 17,000 reagents; this is an unselected part. About 1,110 of all reagents (6.6%) were called active. 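Active means lowered or raised reporter signal; replicate intensities are raw and not normalised per plate.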 Reagent sequences are not shown.

| target gene | Tnf reporter robust z-score | fewer than 50 cells in well | Tnf reporter intensity, replicate 1 | Tnf reporter intensity, replicate 2 | Outcome |
| --- | --- | --- | --- | --- | --- |
| Pzp2 | 0.14 | enough cells in well | 141 | 130 | inactive |
| Ctps1 | -0.27 | enough cells in well | 200 | 197 | inactive |
| Surf4 | 1.33 | enough cells in well | 174 | 117 | inactive |
| Lrrc3 | -1.23 | enough cells in well | 110 | 86.2 | inactive |
| Saa1 | 0.73 | enough cells in well | 367 | 251 | inactive |
| Trim12c | -0.12 | enough cells in well | 137 | 168 | inactive |
| Sbp | -0.95 | enough cells in well | 66.2 | 108 | inactive |
| Gadd45gip1 | 0.41 | enough cells in well | 309 | 253 | inactive |
| Il13ra1 | 0.29 | enough cells in well | 285 | 186 | inactive |
| Snx11 | 0.92 | enough cells in well | 110 | 122 | inactive |
| Arl4a | -1.26 | enough cells in well | 103 | 89.8 | inactive |
| Homer1 | 0.03 | enough cells in well | 243 | 169 | inactive |
| Or1l8 | 0.43 | enough cells in well | 213 | 134 | inactive |
| Dusp7 | 0.98 | enough cells in well | 212 | 252 | inactive |
| Wdr45b | -1.43 | enough cells in well | 152 | 35.2 | active |
| 1700020N01Rik | -0.34 | enough cells in well | 176 | 79.8 | inactive |
| Serpina3c | 0.35 | enough cells in well | 117 | 109 | inactive |
| Gm9734 | -0.03 | enough cells in well | 171 | 53.4 | inactive |
| Phip | 0.44 | enough cells in well | 319 | 189 | inactive |
| Mrgprg | 2.6 | enough cells in well | 331 | 251 | inactive |
| Spry2 | -1.55 | enough cells in well | 148 | 90.3 | active |
| Lage3 | -0.36 | enough cells in well | 249 | 36.6 | inactive |
| Or3a1d | -1.18 | enough cells in well | 114 | 57.6 | inactive |
| Tnfaip6 | 0.07 | enough cells in well | 251 | 129 | inactive |

Looked up above.
Value for Phip under “Tnf reporter intensity, replicate 2”: 189
Under “fewer than 50 cells in well”, Or3a1d shows enough cells in well
